Test [1] deals with T1, VP16-JMY^469-558 (mouse) (UniProt Q9QXM1).
T1 sequence: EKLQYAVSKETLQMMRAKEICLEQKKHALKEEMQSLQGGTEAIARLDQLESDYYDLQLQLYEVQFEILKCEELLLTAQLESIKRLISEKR
As to the kind of experiment: mammalian two-hybrid assay in U2OS cells.

Sequences of proteins named here, by UniProt entry; tags and fusion partners are left off. A change or cut given only in a name is not applied to a line headed by its entry.
UniProt P04386: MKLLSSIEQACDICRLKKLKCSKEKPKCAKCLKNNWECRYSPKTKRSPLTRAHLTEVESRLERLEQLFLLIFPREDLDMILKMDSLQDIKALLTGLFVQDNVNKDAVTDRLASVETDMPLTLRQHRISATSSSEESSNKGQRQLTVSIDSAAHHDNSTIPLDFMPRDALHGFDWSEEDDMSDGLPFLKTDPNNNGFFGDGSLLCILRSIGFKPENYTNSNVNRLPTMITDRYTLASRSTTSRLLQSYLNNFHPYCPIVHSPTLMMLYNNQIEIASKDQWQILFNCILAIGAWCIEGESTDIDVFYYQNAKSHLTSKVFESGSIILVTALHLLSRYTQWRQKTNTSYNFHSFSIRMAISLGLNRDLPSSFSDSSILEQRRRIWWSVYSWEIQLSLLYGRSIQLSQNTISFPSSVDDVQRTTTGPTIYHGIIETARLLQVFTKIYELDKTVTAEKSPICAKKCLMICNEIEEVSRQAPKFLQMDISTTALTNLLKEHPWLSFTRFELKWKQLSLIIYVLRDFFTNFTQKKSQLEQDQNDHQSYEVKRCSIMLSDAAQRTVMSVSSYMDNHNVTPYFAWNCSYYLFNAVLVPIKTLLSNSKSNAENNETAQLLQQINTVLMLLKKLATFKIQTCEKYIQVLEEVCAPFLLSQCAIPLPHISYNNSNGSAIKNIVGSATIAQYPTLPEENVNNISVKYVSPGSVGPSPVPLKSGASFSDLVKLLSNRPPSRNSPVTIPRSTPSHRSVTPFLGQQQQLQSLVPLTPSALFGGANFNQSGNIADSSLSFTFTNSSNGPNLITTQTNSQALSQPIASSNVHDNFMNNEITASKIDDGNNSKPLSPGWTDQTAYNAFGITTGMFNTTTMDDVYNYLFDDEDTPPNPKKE
UniProt P0A7C2: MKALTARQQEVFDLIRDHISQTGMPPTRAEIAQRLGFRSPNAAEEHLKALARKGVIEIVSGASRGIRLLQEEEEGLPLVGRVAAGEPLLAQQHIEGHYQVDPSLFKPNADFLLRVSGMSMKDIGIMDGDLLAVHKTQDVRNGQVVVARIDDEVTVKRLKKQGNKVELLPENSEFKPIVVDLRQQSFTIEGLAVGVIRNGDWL
UniProt P20226: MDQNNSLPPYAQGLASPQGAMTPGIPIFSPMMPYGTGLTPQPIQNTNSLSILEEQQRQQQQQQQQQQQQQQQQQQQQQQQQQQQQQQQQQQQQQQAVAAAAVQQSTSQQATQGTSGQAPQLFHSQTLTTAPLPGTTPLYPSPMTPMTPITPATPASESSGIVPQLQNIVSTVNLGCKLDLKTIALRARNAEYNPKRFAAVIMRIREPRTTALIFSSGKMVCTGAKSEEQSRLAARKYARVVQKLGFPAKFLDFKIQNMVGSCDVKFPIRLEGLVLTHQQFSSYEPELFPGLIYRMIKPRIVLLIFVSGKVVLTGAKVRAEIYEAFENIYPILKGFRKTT

The target of test [2] is T1, VP16-JMY^469-558 (mouse). Briefly: yeast two-hybrid, β-galactosidase induction; prey VP16-JMY^469-558.
For a further test, the target named is GST-JMY 1-117 (mouse) (UniProt Q9QXM1). Briefly: GST pull-down of in vitro translated, labelled protein with 2 µg GST-JMY portion.
Another test deals with GST-JMY 1-504 (mouse) (UniProt Q9QXM1). The description is as above.

No constants are given. Whether binding was seen depends on the method and setting. For some of these results: Binding seen in cells or lysates may run through a third protein. Some binding calls cover weakened binding; strength is not graded here.

Regarding “G4-p300^611-2283 (from UniProt P04386 1-147; Q09472 611-2283)”, in the test with VP16-JMY^469-558 (mouse) [1], the binding entry is “binds”.

For “LexA-p300^611-2283 (from UniProt P0A7C2 1-202; Q09472 611-2283)”, the binding result with VP16-JMY^469-558 (mouse) [2] is reported as “binds”. “TATA-box-binding protein TBP (from UniProt P20226 1-339)”: the binding result with GST-JMY 1-117 (mouse) and with GST-JMY 1-504 (mouse) was “binds” throughout.

Source of the values: US20020028487A1.
